Test results taken from paper PMC11151566.
No constants are given. Whether binding was seen depends on the method and setting. In cells and extracts the contact can be indirect. Some binding calls cover weakened binding; strength is not graded here.

Amino acid sequences for entries named in this document (tags omitted).
UniProt Q92830: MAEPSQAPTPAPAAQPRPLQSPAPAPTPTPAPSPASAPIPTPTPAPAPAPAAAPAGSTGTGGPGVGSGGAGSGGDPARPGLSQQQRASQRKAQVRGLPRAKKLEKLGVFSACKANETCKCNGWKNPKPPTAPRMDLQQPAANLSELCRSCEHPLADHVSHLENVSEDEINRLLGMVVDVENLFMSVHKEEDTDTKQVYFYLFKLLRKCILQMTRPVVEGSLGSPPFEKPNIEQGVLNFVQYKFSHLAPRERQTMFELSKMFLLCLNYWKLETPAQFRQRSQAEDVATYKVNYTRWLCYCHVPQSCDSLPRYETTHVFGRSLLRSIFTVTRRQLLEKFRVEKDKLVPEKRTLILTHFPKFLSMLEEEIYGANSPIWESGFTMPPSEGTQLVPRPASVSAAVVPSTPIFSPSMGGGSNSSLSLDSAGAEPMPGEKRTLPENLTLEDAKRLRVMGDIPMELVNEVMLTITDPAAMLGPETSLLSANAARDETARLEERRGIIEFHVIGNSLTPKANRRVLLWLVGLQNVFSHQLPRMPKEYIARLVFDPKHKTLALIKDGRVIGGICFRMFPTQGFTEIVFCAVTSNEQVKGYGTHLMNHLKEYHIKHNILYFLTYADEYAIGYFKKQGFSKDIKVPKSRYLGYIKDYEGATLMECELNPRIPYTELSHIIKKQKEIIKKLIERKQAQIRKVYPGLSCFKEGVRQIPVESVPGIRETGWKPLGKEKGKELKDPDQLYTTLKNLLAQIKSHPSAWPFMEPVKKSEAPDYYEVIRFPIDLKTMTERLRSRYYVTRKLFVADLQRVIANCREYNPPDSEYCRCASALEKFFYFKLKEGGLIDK
UniProt P18669: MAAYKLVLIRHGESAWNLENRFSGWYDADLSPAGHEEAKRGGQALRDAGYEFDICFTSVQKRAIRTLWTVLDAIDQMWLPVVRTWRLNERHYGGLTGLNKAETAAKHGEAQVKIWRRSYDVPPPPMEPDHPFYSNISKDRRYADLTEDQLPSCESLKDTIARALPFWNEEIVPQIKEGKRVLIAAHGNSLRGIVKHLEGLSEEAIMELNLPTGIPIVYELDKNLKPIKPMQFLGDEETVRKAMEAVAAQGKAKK

Target: lysine acetyltransferase (KAT) 2 A (human (endogenous in SNU182 and Huh7)) (UniProt Q92830)
Assay: co-IP; SNU182 and Huh7 cells lysed in RIPA buffer with protease inhibitors; KAT2A, PGAM1 or IgG antibody (2 µg) overnight at 4 °C, protein A agarose beads, western blot

binding: binds
Substance: phosphoglycerate mutase 1 (PGAM1) (from UniProt P18669 1-254) (enzyme)
